Four substances from paper PMC4438057 can be followed below.

Chains of the proteins cited; added tags and fusions are not shown. Lines headed by an entry give the natural chain unless they say otherwise; changes in a name come on top.
UniProt O14545: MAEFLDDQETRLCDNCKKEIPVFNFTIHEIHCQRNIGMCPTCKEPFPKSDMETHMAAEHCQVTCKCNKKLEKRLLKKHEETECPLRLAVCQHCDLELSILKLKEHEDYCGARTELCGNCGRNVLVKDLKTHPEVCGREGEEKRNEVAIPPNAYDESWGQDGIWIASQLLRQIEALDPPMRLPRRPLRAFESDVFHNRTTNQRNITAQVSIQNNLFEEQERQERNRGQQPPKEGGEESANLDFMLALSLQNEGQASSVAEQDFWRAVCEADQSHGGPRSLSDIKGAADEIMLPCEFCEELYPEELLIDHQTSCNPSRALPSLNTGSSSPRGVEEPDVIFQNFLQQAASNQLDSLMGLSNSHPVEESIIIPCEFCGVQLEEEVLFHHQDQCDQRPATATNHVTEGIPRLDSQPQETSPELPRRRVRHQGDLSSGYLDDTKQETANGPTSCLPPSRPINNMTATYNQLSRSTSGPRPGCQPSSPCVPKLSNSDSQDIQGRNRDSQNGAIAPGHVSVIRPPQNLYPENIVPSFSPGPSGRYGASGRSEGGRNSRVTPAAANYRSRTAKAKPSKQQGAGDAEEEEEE
UniProt Q9Y4G2: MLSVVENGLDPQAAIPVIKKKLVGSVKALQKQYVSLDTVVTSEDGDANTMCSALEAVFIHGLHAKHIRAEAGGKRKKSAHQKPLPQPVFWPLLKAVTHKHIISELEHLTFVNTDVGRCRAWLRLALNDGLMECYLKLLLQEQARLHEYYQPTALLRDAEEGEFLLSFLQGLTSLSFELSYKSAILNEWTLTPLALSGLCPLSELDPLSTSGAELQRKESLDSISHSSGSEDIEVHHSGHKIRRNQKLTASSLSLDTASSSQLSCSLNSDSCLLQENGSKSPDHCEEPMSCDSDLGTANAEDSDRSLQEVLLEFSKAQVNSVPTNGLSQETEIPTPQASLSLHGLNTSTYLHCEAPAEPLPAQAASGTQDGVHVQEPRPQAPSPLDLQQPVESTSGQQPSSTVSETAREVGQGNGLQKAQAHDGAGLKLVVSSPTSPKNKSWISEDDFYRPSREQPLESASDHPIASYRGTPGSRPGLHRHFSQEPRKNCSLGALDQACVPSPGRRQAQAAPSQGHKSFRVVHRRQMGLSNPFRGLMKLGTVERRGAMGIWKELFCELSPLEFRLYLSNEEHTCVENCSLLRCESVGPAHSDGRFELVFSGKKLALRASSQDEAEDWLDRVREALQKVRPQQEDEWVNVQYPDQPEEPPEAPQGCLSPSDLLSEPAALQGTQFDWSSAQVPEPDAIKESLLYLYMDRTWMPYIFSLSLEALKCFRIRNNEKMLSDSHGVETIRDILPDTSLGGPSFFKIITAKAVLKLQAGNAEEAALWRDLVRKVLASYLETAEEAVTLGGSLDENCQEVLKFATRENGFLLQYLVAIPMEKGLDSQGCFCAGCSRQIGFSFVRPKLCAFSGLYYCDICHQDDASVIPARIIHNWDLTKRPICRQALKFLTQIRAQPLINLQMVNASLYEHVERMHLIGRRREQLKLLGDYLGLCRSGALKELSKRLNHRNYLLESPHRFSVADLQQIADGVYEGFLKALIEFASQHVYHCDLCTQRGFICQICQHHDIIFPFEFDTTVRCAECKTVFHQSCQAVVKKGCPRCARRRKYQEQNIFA

Results are given in words; binding and its absence hold for the method and conditions named. Binding seen in cells or lysates may run through a third protein. Some results given as binding are weak or reduced against the parent protein; the word gives no strength.

Assay [1] deals with C-terminally FLAG-tagged full-length TRAFD1 (human) (UniProt O14545). As to the kind of experiment: co-IP; HEK293 cells with FLAG-tagged full-length TRAFD1 and TAP-tagged Plekhm1 constructs; lysate (50 mM Tris HCl pH 7.4, 150 mM NaCl, 5 mM MgCl2, 0.5% Triton-X-100) precipitated with FLAG-M2 gel, 2 h, 4°C; blot with anti-HA.
The target in assay [2] is TAP-tagged full-length human Plekhm1 (human) (UniProt Q9Y4G2). As to the kind of experiment: pull-down; HEK293T cells co-transfected with TAP-Plekhm1 and TRAFD1-FLAG constructs; lysate (50 mM Hepes-KOH pH 8.0, 100 mM KCl, 2 mM EDTA, 0.1% Nonidet-40, 10% glycerol) pulled down with Streptavidin Sepharose, 2 h, 4°C; blot with anti-FLAG.

For “TAP-tagged full-length human Plekhm1 (from UniProt Q9Y4G2 1-1056)”, the binding entry in assay [1] is “binds”.

Consider “TRAFD1 N-terminal deletion mutant (aa Δ1–37), FLAG-tagged (from UniProt O14545 38-582) (domain or fragment)”, for which the binding result in assay [2] is “binds”. Still for that read-out and setting: for “C-terminally FLAG-tagged full-length TRAFD1 (from UniProt O14545 1-582)” the value was “binds”. In the case of “TAP-tagged Plekhm1 C-terminal region (778–986 aa) (from UniProt Q9Y4G2 778-986) (domain or fragment)”, the binding entry in assay [1] was “binds”.
